The assay can be described thus: qHTS Assay for Modulators of Lamin A Splicing. Conditions: HeLa LMNA splicing GFP/RFP minigene ratio, 48 h. The method in brief:
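S3 HeLa cells stably expressing lamin A-EGFP splicing minigene plus DsRed2, 600 cells/well, 48 h compound exposure at 37C. Laser-scanning cytometry; analysed as GFP (500-530 nm)/RFP (575-640 nm) total intensity ratio; 0.5% DMSO vehicle.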

The mark [1] stands for this setting: measured here: GFP splicing reporter channel.
[2] abbreviates: measured here: RFP viability control channel.

The other results are listed elsewhere or left out. Further columns of the screen follow, without active or inactive calls. Compounds called inactive in the main read-out are mostly missing here. The note in brackets gives the kind of curve behind each potency; many fits are weak.

As to `Cc1cc(=S)cc(C)n1CCO`, the concentration at half-maximal activity (AC50) is 14.1 µM [rising, single point] under setting [1] and 15.8 µM [rising, single point] under setting [2].

In the case of `CS(=O)(=O)N(CC(=O)Nc1ccc(S(=O)(=O)N2CCCC2)cc1)c1ccccc1`, the AC50 reads like this: under setting [1], 0.316 µM [falling, full curve, poor fit]; under setting [2], 0.501 µM [falling, partial curve].

In the case of `Cc1ccc(NC(=S)NNC(=O)c2nnn(-c3ccccc3)c2C)cc1`, the half-maximal activity concentration (AC50) reads like this: under setting [1], 10 µM [rising, partial curve]; under setting [2], 7.94 µM [rising, partial curve, poor fit].

`COc1ccc(-c2cc(C(=O)Nc3sc4c(c3C#N)CCCC4)c3ccccc3n2)cc1`: the concentration at half-maximal activity (AC50) under setting [2] is 12.6 µM [rising, partial curve]. For `COc1cc2c(cc1NC(=O)COC(=O)[C@@H](NS(=O)(=O)c1cccc(Cl)c1)C(C)C)oc1ccccc12`, the AC50 by setting is: under setting [1], 10 µM [rising, partial curve, poor fit]; under setting [2], 12.6 µM [rising, partial curve, poor fit]. With `CN(C)c1ccc(-c2nc(NC3CCNCC3)c3ccccc3n2)cc1`, the AC50 is 35.5 µM [falling, single point] under setting [1] and 35.5 µM [falling, single point] under setting [2]. For the compound `CCOC(=O)n1c(=O)oc2cc(S(=O)(=O)N3CCCCC3)ccc21`, the AC50 under setting [2] is 17.8 µM [rising, single point].

On to `O=c1[nH]nc(CNc2ccc(Cl)cc2Cl)c2ccccc12`, for which, under setting [2], the half-maximal activity concentration (AC50) is 0.316 µM [falling, partial curve, poor fit]. The same measure, in the same setting: next, `C=CCc1cccc(C=Nc2cc(Br)ccc2O)c1O`: 1.41 µM [rising, partial curve].

As to `NC(=O)[C@@H]1CCCN1Cc1nc(-c2cccs2)no1`, the AC50 under setting [2] was 0.0708 µM [falling, full curve, poor fit]. Regarding `O=C1CCCc2cc(S(=O)(=O)NCC3CCC(C(=O)NCc4ccccc4Cl)CC3)ccc2N1` (stereo not drawn), the AC50 is 0.01 µM [falling, full curve, poor fit] under setting [1] and 0.00501 µM [falling, full curve, poor fit] under setting [2]. For the compound `COc1ccccc1N1CCN(C(=O)c2c(C)oc3ncn(CC(C)C)c(=O)c23)CC1`, the AC50 by setting is: under setting [1], 3.98 µM [rising, partial curve, poor fit]; under setting [2], 5.01 µM [rising, single point]. As for `Cn1c(NC(=O)/C=C/c2ccc(Cl)c(Cl)c2)cc(=O)n(C)c1=O`, the half-maximal activity concentration (AC50) under setting [1] was 15.8 µM [rising, partial curve, poor fit] and the AC50 under setting [2] is 10 µM [rising, partial curve, poor fit]. Turning to `CCN(CC)S(=O)(=O)c1cccc(C(=O)Nc2cc3oc4ccccc4c3cc2OC)c1`, the half-maximal activity concentration (AC50) under setting [2] is 5.62 µM [rising, single point]. Take `Cc1ccc2cc(C#N)c(N3CCCN(C(=O)C4CCCO4)CC3)nc2c1C` (stereo not drawn): the half-maximal activity concentration (AC50) runs as follows: under setting [1], 14.1 µM [rising, single point]; under setting [2], 17.8 µM [rising, single point]. Consider `Cc1ccc2cccc(Oc3ccc([N+](=O)[O-])cc3[N+](=O)[O-])c2n1`, for which the AC50 under setting [1] was 15.8 µM [rising, partial curve, poor fit]. As for `COc1cc(C2C(=O)N(C3CCCCC3)CC(=O)N2CCC2=CCCCC2)ccc1OC(C)C` (stereo not drawn), under setting [2], the AC50 was 0.251 µM [falling, full curve, poor fit].

Regarding `CC(C)N(C(=O)Cc1ccccc1[N+](=O)[O-])C(C)C`, under setting [1], the half-maximal activity concentration (AC50) is 3.16 µM [rising, full curve, poor fit].

For the compound `O=C(CCCNS(=O)(=O)c1cccs1)N1CCN(c2cccc(Cl)c2)CC1`, the AC50 by setting is: under setting [1], 35.5 µM [rising, single point]; under setting [2], 35.5 µM [rising, single point].

Consider `Cc1ccnc(NS(=O)(=O)c2ccc(NC(=O)Cc3ccccc3)cc2)n1`, for which, under setting [2], the AC50 is 0.355 µM [rising, partial curve, poor fit]. Same read-out and setting: next, `Cc1ccccc1NCC(=O)N/N=C/C(Br)=C/c1ccccc1`: 6.31 µM [rising, partial curve]. As to `Cc1cccc(CSc2ccc3nnc(-c4ccccn4)n3n2)c1`, the concentration at half-maximal activity (AC50) under setting [2] was 0.0224 µM [rising, full curve]. For the compound `COc1cc(N/N=C(\C)c2ccc(O)c(C)c2)nc(-c2ccccc2)n1`, the half-maximal activity concentration (AC50) is 12.6 µM [falling, partial curve] under setting [1] and 7.94 µM [falling, partial curve] under setting [2]. On to `Cc1cccc(Nc2nnc(SCC(=O)Nc3cccc(S(=O)(=O)N4CCCCC4)c3)s2)c1`, for which the AC50 under setting [2] is 25.1 µM [rising, single point]. `O=C(O)c1cccc(N=NN2CCOCC2)c1`: the AC50 is 5.62 µM [falling, partial curve] under setting [1] and 17.8 µM [falling, partial curve, poor fit] under setting [2].

`CCOC(=O)c1c(-c2ccc(-c3ccccc3)cc2)csc1NC(=O)CCN1CCOCC1`: the AC50 under setting [2] was 15.8 µM [rising, single point]. As for `Cc1cc(C)cc(NC(=O)C2CCN(S(=O)(=O)c3cccc(-c4noc(C)n4)c3)CC2)c1`, the AC50 is 7.94 µM [falling, partial curve] under setting [1] and 2 µM [falling, partial curve] under setting [2].

Turning to `Cc1ccc(CNC(=O)CCCN2C(=O)COc3ccc(C)cc32)cc1`, the half-maximal activity concentration (AC50) under setting [1] was 5.62 µM [rising, single point]. In the case of `Cc1cccc(NC(=O)C(=O)NCCc2csc(-c3ccc(C(F)(F)F)cc3)n2)c1C`, under setting [2], the AC50 was 0.316 µM [falling, full curve]. As for `COC(=O)c1ccncc1C(=O)Nc1ccc(OC)cc1`, the concentration at half-maximal activity (AC50) under setting [2] was 0.00501 µM [falling, full curve, poor fit]. For the compound `CC(C)C(C(=O)O)N1C(=O)/C(=C/C=C/c2ccco2)SC1=S` (stereo not drawn), the AC50 under setting [1] was 14.1 µM [rising, single point]. As for `CN1c2ccccc2C(C)(C)C12CC(c1cccc(S(=O)(=O)N3CCCC3)c1)=NO2` (stereo not drawn), the half-maximal activity concentration (AC50) is 1.78 µM [rising, single point] under setting [1] and 2.24 µM [rising, partial curve] under setting [2]. Consider `CCCCCCCC1=Cc2ccccc2C(C(C(=O)OC)C(=O)OC)N1C(=O)OC` (stereo not drawn), for which the half-maximal activity concentration (AC50) under setting [1] was 0.00282 µM [falling, full curve, poor fit] and the half-maximal activity concentration (AC50) under setting [2] was 0.00316 µM [falling, full curve, poor fit].

For the origin of these results see PubChem BioAssay AID1487 (National Center for Advancing Translational Sciences (NCATS), 2009).
